Experimental findings from patent US20250270566 are described below.

One series has as its target GFP (UniProt P42212). Nature of the series: binding assay. The following applies: CITED Shui et al. 2012, 295.15 K; purified recombinant protein.
Series [1] deals with OGT TPR domain (tetratricopeptide repeat domain). Nature of the series: SPR. The following applies: ABB 5 mM MgCl2, 25 C; purified recombinant protein; protein details: His tag (Ni-NTA purified, pET24a-TPR, E. coli); variant of T1.
Series [2] has as its target T1, OGT endogenous (Homo sapiens) (UniProt O15294).
T1 sequence (looked up, limits assumed): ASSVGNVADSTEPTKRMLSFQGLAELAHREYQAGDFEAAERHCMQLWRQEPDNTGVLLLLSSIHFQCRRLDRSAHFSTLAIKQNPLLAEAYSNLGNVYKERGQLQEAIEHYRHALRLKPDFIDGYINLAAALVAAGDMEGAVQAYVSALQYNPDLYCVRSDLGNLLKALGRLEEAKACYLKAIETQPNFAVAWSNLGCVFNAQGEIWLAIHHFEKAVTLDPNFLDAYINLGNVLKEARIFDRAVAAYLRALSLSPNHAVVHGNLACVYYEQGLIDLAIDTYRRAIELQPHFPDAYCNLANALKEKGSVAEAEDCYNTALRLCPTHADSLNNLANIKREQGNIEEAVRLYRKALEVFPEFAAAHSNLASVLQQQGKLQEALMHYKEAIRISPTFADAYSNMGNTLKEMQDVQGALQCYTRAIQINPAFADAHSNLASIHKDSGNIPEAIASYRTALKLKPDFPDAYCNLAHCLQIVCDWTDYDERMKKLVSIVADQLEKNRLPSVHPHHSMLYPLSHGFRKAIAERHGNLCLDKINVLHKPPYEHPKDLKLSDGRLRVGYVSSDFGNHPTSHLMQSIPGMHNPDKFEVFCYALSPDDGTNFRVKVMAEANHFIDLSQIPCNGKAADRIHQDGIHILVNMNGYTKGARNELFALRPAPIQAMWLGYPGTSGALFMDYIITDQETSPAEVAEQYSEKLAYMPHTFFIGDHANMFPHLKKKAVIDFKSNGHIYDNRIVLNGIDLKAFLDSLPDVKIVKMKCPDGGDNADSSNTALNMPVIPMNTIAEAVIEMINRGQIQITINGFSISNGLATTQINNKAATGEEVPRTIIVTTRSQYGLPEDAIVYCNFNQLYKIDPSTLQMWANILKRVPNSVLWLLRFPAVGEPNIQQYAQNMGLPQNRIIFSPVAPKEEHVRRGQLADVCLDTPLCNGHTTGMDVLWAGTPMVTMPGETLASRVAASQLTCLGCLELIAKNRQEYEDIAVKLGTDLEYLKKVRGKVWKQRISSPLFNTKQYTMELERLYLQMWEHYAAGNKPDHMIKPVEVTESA
Nature of the series: pull-down. The following applies: protein in cells, label: 5'-32P (dot blot).

For some of these results: Where cells or extracts were used, other partners may take part. For some of these results: No signal at the amounts used counts as a negative. For some of these results: Where a protein sequence is shown, tags need not be part of it. For at least one entry, the source does not settle the construct or the ends of the probe.

The term Kd denotes the equilibrium constant for the complex coming apart. In the case of “AGCUUCUGGACUGCGAUGGGAGCACGAAACGUCGUGGCGCAAUUGGGUGGGGAAAGUCCUUAAAAGAGGGCCACCACAGAAGCU [AP3]”, the dissociation constant (Kd) with GFP amounted to 5.1 nM. Turning to “GGGAGAAUCACUUACGGAUCCUCGUUAAGUGGCUCUCAGUCGCCCGUAACUCCGAUGCCGAUGCAGCGGCGACAACUGCACCCAAGGCUCGGAAGCUU [T1 with 3' A28 tail]”, the binding result in series [1] was “binds”. “GGGAGAAUCACUUACGGAUCCUCGUUAAGUGGCUCUCAGUCGCCCGUAACUCCGAUGCCGAUGCAGCGGCGACAACUGCACCCAAGGCUCGGAAGCUU [T1]”: the binding result in series [2] (RNA-IP RT-qPCR from T1-expressing HEK293T, 1 mM Mg2+) was “binds”; in series [2] (RNA-IP without Mg2+, T1 no longer enriched) it was “no binding”.
